Assay results taken from publication PMC4924649.
No constants are given. Whether binding was seen depends on the method and setting. Some binding calls cover weakened binding; strength is not graded here.

The chains behind the UniProt entries cited, without tags or fusion partners. Residues count along the entry.
UniProt P19883, residues 30-344: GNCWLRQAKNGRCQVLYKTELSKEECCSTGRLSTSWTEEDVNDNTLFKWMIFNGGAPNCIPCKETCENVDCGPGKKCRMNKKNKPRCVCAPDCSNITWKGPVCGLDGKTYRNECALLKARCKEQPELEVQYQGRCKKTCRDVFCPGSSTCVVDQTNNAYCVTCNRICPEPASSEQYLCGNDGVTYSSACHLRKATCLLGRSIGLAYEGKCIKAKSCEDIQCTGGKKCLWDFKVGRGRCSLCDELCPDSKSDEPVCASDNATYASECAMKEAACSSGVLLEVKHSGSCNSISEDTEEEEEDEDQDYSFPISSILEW
UniProt P08476, residues 311-426: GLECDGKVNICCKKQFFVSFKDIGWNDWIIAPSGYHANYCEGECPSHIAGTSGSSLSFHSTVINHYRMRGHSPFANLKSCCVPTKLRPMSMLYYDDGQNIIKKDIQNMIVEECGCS

Target: follistatin (human (endogenous in plasma)) (UniProt P19883)
Test: ELISA; plasma samples treated with rhActA (50 and 100 ng/ml), then FST measured with the Quantikine FST ELISA (R&D Systems DFN00); read-out is the loss of detectable (free) FST; only the binder purified

- binding: binds
Substance: recombinant human activin A (from UniProt P08476 311-426) (ligand)
